The list shows a part of the results.
Legend:
Assay in all cases: log2 fold change, soluble protein after heating vs DMSO (PISA); higher = thermal stabilisation; K562 lysate, 10 uM; active = over 0.2 and 3.5 SD of the protein, either way, in both replicates (recomputed)
[1] = compound: C1=CC=C(C=C1)[C@H](COC2=CC3=C(C=C2)NC(=O)N3)NC(=O)C4=CC=CN(C4=O)CC5=CC(=C(C=C5)F)F
How it was run: (§1)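 K562 pellets were dounce-homogenised in PBS pH 7.4 with 1 mM MgCl2, and the crude extract at 1 mg/mL protein was treated with 10 μM compound for 30 min. Aliquots were heated for 3 min across 48°C-58°C, pooled, and brought to 0.5% NP-40 at 4°C; soluble protein was the supernatant after 21,000xg for 90 min. Soluble protein was quantified by TMTpro 16plex LC-MS/MS with channel sums equalised, and reported as log2 fold change in thermal stability against DMSO controls, with values from duplicates.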

Amino acid sequences for entries named in this document (tags omitted). A change or cut given only in a name is not applied to a line headed by its entry.
UniProt Q4G176: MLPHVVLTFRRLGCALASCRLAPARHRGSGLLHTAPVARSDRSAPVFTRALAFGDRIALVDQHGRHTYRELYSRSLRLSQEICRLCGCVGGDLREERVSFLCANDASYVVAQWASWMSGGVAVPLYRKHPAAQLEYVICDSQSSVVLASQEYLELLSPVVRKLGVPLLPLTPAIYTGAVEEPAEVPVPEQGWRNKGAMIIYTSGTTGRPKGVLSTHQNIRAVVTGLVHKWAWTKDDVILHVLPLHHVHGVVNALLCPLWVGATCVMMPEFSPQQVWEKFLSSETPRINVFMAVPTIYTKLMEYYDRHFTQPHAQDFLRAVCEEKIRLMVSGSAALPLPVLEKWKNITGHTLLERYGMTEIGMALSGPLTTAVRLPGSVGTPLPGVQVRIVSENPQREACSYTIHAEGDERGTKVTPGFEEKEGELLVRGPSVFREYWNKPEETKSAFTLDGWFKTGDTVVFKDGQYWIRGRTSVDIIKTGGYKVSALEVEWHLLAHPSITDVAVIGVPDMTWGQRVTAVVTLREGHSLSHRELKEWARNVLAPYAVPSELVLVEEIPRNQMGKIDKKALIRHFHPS
UniProt P00813: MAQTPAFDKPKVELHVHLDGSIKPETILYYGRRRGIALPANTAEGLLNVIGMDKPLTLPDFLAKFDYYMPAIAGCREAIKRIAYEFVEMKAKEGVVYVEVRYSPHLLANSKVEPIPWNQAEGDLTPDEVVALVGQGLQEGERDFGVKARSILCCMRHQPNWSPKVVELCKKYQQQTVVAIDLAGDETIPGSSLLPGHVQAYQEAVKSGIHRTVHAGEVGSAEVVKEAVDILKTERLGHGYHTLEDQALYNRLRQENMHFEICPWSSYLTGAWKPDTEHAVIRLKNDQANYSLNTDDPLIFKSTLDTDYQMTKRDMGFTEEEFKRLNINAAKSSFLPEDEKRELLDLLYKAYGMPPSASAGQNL
UniProt P33121: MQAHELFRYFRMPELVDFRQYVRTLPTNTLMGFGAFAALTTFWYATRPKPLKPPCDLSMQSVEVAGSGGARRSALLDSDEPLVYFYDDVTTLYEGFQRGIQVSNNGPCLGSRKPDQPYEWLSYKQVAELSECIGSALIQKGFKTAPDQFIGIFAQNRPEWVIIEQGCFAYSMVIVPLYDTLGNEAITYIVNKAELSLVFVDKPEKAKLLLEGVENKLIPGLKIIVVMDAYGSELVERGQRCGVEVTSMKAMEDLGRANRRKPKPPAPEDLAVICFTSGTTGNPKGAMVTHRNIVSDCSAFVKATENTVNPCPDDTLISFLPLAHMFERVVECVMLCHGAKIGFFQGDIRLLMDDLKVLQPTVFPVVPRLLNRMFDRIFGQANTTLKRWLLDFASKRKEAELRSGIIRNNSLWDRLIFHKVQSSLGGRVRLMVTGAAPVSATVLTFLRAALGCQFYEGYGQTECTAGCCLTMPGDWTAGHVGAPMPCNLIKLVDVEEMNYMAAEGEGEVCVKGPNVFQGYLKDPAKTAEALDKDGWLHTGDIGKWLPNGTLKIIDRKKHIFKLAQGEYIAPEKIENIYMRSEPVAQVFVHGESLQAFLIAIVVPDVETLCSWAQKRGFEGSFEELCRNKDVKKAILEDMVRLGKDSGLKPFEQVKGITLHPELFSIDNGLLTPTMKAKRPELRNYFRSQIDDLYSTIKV
UniProt Q13443: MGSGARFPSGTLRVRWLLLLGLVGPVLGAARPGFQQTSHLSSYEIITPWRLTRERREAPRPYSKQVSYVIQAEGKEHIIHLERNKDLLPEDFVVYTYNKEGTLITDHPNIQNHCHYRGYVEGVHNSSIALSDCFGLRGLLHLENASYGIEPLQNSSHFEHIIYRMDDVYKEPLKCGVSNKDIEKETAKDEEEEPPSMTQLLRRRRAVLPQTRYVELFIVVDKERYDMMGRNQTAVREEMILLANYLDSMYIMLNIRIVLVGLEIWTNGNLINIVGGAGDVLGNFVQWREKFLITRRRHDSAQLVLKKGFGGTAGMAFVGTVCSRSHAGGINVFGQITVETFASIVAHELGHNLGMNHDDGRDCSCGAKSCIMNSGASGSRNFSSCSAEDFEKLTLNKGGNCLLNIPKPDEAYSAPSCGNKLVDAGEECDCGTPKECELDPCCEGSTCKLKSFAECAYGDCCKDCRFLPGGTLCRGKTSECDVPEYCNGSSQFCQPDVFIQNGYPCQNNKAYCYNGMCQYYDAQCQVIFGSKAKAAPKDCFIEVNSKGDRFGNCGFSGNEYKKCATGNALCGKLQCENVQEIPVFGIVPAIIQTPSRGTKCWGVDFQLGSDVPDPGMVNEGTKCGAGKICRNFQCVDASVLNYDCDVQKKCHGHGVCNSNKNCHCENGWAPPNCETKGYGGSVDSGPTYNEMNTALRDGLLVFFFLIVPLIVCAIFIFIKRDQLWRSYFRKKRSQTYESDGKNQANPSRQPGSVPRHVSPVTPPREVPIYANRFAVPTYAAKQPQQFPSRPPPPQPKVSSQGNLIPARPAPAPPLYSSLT
UniProt Q13155: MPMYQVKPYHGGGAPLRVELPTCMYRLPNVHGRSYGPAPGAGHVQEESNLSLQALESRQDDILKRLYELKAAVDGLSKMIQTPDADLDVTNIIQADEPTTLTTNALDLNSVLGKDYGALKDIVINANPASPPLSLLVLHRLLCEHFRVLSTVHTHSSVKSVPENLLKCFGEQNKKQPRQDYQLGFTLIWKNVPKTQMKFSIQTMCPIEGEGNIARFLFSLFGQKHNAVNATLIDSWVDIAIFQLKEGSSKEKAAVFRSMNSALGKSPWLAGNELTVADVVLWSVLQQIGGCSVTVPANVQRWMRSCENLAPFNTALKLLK
UniProt Q9NZ32, whole entry, looked up: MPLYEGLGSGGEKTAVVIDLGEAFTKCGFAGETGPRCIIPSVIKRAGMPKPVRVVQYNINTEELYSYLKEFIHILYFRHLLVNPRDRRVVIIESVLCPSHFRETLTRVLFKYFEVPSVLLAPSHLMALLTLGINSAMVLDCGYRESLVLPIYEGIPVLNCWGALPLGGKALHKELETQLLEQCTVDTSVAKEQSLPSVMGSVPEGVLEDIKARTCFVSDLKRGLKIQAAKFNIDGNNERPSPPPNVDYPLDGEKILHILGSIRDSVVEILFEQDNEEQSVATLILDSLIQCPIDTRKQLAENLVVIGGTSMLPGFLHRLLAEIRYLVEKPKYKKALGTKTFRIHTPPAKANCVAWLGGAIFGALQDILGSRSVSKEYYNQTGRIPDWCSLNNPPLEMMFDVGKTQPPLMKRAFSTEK
UniProt P11117: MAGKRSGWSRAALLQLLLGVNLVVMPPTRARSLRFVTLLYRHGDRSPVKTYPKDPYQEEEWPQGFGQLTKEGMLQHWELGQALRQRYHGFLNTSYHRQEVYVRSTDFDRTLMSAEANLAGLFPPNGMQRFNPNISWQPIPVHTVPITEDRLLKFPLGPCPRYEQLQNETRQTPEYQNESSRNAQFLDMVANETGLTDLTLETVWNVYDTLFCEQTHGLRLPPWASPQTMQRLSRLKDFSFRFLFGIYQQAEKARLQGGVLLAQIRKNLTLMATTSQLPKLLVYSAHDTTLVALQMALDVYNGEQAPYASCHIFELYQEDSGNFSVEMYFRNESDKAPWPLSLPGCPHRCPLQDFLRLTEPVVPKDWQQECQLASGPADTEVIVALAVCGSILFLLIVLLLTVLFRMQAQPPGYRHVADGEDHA
UniProt O60488: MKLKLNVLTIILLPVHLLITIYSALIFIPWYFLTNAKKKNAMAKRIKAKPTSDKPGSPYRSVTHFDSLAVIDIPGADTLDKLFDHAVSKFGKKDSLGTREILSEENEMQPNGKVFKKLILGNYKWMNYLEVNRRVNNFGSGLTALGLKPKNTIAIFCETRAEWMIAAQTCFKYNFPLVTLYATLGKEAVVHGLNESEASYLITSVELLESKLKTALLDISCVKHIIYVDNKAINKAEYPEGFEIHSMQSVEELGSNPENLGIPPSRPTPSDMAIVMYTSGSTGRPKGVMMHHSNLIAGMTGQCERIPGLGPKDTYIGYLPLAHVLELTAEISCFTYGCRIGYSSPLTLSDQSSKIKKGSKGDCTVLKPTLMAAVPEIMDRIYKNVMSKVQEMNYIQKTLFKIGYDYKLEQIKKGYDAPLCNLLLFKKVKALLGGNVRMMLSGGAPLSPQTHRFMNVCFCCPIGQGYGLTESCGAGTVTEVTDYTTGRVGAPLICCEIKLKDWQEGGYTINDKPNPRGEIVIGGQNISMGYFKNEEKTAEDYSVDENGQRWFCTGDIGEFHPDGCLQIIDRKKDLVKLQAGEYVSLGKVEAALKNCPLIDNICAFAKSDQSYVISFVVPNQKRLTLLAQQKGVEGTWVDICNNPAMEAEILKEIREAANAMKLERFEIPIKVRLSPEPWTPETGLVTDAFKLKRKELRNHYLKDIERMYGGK
UniProt Q9ULX6: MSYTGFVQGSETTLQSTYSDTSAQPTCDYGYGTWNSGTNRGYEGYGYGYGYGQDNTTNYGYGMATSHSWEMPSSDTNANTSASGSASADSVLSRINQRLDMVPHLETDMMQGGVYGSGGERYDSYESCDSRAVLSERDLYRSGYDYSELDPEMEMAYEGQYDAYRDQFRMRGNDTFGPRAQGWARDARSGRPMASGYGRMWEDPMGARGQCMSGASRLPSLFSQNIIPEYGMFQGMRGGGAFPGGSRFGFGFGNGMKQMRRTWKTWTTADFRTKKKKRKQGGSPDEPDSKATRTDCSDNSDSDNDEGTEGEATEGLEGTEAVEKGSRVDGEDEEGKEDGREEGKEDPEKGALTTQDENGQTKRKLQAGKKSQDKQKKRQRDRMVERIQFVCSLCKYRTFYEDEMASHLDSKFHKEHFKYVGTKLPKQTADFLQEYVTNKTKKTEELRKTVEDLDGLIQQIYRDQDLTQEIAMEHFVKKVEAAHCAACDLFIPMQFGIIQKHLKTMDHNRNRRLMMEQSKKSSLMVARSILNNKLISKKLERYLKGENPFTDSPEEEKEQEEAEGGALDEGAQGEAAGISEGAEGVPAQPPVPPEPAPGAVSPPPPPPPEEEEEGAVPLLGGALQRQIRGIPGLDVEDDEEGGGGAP

[2] = compound: CC1=C(SC2=C1C(=N[C@H](C3=NN=C(N32)C)CC(=O)N)C4=CC=C(C=C4)Cl)C
How it was run: as §1

[3] = compound: CC1=C2C(=CC=C1)N=C(N(C2=O)C3=CC=CC=C3C)CN4C=NC5=C(N=CN=C54)N
How it was run: as §1

[4] = compound: Cc1sc2c(c1C)C(c1ccc(Cl)cc1)=N[C@@H](CC(=O)OC(C)(C)C)c1nnc(C)n1-2
How it was run: as §1

[5] = compound: c1ccc([C@@H]2C[C@H]2NC2CCNCC2)cc1
How it was run: as §1

Measured: log2 fold change

ACSF3 (UniProt Q4G176)
inactive: [1] 0.119 | [2] 0.012 | [3] -0.024 | [4] -0.004 | [5] 0.013

ADA (UniProt P00813)
inactive: [1] 0 | [2] 0.005 | [3] -0.005 | [4] 0.099 | [5] -0.05

ACSL1 (UniProt P33121)
inactive: [1] -0.136 | [2] 0.004 | [3] 0.014 | [4] 0.063 | [5] 0.021

ADAM9 (UniProt Q13443)
inactive: [1] -0.017 | [2] -0.023 | [3] 0.031 | [4] 0.051 | [5] -0.004

AIMP2 (UniProt Q13155)
inactive: [1] -0.028 | [2] 0.021 | [3] 0.013 | [4] 0.036 | [5] 0.041

Fetched one by one from above (2):
AIMP2 (UniProt Q13155)
inactive: [1] -0.028 | [2] 0.021 | [3] 0.013 | [4] 0.036 | [5] 0.041

ADA (UniProt P00813)
inactive: [1] 0 | [2] 0.005 | [3] -0.005 | [4] 0.099 | [5] -0.05

Going on with the list:

ACTR10 (UniProt Q9NZ32)
inactive: [1] 0.038 | [2] -0.027 | [3] 0.064 | [4] 0.022 | [5] -0.055

ACP2 (UniProt P11117)
inactive: [1] -0.017 | [2] 0.034 | [3] 0.009 | [4] 0.021 | [5] -0.023

ACSL4 (UniProt O60488)
inactive: [1] -0.058 | [2] 0.046 | [3] 0.032 | [4] -0.106 | [5] 0.038

AKAP8L (UniProt Q9ULX6)
inactive: [1] 0.011 | [2] -0.005 | [3] -0.001 | [4] 0.018 | [5] -0.02

Source: the supplement of paper PMC10849652
